Assay results as given in publication PMC4117494.
Results are given in words; binding and its absence hold for the method and conditions named. Binding seen in cells or lysates may run through a third protein. Binding calls can cover weak binding; strength is not graded here.

Biological target: Archaeoglobus fulgidus Nop5 lacking the C-terminal charged tail, histidine-tagged (Archaeoglobus fulgidus)
Assay: co-purification after co-expression (Ni-NTA affinity, gel filtration); Af Nop5 (single histidine tag), fibrillarin, L7Ae and sR3 or tRNA-sR3 RNA co-expressed in E. coli Rosetta (DE3); lysate in 25 mM Na2HPO4 pH 7.6, 500 mM NaCl, 10% glycerol heated at 70°C for 30 minutes; Ni-NTA, then Superdex 200; proteins identified by SDS-PAGE (silver stain) and mass spectroscopy

binding: binds
B1: Archaeoglobus fulgidus fibrillarin (protein, UniProt O28192 1-210)
chain: MKELMRNVYLLDDTLVTKSKYGSHYGEKVFDGYREWVPWRSKLAAMILKGHRLKLRGDERVLYLGAASGTTVSHLADIVDEGIIYAVEYSAKPFEKLLELVRERNNIIPLLFDASKPWKYSGIVEKVDLIYQDIAQKNQIEILKANAEFFLKEKGEVVIMVKARSIDSTAEPEEVFKSVLKEMEGDFKIVKHGSLMPYHRDHIFIHAYRF
